This assay addresses Enhancer of Zeste Homolog-2 (EZH2) (human (endogenous in EA.hy926)) (UniProt Q15910). The assay can be described thus: affinity purification with mass spectrometry.

Amino acid sequences for entries named in this document (tags omitted). A change or cut given only in a name is not applied to a line headed by its entry. Residues count along the entry.
UniProt Q15910: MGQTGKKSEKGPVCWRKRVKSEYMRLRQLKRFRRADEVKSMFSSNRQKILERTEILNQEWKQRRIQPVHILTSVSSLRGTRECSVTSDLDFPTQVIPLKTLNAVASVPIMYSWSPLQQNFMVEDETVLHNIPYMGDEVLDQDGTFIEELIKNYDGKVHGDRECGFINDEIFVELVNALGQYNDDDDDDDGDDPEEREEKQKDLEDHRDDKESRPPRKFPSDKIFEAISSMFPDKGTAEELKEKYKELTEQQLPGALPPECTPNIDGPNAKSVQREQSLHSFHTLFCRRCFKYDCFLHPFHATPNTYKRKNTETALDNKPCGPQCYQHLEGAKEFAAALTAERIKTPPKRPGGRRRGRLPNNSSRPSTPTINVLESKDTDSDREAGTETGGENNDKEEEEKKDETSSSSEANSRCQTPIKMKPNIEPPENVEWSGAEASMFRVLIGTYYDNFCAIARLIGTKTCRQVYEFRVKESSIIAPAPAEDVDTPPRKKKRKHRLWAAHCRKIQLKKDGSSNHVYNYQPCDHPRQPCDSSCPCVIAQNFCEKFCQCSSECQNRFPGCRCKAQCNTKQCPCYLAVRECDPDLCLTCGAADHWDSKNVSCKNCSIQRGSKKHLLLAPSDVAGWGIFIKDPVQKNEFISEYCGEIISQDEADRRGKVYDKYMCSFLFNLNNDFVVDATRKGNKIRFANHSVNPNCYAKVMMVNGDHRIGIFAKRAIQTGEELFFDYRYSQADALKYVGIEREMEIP
UniProt P28074: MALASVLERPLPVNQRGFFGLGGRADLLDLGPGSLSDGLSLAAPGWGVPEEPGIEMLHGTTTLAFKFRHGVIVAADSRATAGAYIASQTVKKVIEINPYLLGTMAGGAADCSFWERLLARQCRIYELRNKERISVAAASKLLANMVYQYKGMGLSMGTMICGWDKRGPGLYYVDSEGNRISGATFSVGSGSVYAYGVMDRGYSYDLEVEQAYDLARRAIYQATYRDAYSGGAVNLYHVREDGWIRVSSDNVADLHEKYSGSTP
UniProt P07339: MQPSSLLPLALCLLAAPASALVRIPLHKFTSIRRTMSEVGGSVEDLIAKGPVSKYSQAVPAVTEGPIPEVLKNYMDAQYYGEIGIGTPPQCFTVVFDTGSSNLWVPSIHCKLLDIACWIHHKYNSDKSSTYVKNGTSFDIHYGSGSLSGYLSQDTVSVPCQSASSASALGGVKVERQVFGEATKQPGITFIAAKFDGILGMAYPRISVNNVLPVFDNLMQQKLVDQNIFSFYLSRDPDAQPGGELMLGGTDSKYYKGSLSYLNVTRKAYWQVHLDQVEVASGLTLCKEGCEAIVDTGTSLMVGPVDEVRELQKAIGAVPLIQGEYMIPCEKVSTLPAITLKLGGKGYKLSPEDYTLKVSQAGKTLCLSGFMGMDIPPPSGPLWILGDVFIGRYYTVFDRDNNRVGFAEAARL
UniProt Q13510, residues 22-395: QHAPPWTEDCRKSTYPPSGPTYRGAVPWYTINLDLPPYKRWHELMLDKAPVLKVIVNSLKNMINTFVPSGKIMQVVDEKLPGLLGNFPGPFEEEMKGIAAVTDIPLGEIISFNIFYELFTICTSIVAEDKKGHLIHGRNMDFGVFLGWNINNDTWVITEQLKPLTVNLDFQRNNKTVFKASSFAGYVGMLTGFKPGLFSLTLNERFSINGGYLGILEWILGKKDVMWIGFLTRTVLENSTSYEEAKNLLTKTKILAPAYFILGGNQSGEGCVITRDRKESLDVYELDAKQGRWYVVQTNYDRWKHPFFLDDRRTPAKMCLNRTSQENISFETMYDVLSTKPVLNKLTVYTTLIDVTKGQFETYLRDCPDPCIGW

No constants are given. Whether binding was seen depends on the method and setting. Binding seen in cells or lysates may run through a third protein. Here binding means that the protein was enriched with, or labelled near, the bait; the list need not be complete.

For “proteasome subunit beta type-5 (from UniProt P28074)”, the binding entry is given as “binds”. Then “cathepsin D lysosomal protease (from UniProt P07339) (enzyme)”, with “binds”; and “lysosomal acid ceramidase (from UniProt Q13510 22-395) (enzyme)”, with “binds”.

For the origin of these results see article doi:10.1101/2024.02.06.579117.
